Laboratory results: PubChem BioAssay AID504774 (Drosophila RNAi Screening Center, 2011)

- Screen: 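Genes required for cells to withstand methyl methanesulphonate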 (primary screen)
- System: Drosophila Kc167 cells
- Knock-down reagent: long dsRNA against Drosophila genes, about 0.25 µg dsRNA per well
- Duration: about 6 days: 3 days knock-down, then 3 days with or without MMS
- Challenge: methyl methanesulphonate 0.004% (w/v) for 3 days after knock-down
- Measurement: 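Viability in wells given MMS, read as ATP luminescence, normalised by quantiles plate by plate and averaged across replicates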
- Reading the numbers: mean viability with MMS: higher = more surviving cells after MMS
The screen tested about 23,000 reagents; this is a random part of those that have a named target and a result. 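Values are quantile-normalised luminescence on an arbitrary scale; higher means more cells surviving MMS.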 The numbers tell different reagents against one gene apart. Names joined by + are all predicted targets of the reagent. Not all columns of the deposit are shown. Reagent sequences are not shown.

Gene | dsRNA no. | mean viability with MMS
Atg6 | 1 | 3.64e6
CG30394 | 1 | 3.56e6
CG30394 | 2 | 3.58e6
MED19 | 1 | 3.05e6
Mrgn1 | 1 | 3.41e6
ringer | 1 | 3.54e6
Grx1 | 1 | 3.31e6
Syt4 | 1 | 3.54e6
CG31221 | 1 | 3.51e6
CG31221 | 2 | 3.55e6
CG32651 | 1 | 3.51e6
lncRNA:noe | 1 | 3.47e6
TfIIFbeta | 1 | 3.67e6
TfIIFbeta | 2 | 2.69e6
CG9953 | 1 | 3.44e6
CG32533 | 1 | 3.61e6
CG32533 | 2 | 3.44e6
CG33339 | 1 | 3.60e6
pst | 1 | 3.59e6
Dro | 1 | 3.64e6
TM9SF3 | 1 | 3.64e6
Mal-A6 | 1 | 3.74e6
tj | 1 | 3.45e6
CG6621 | 1 | 3.52e6
CG6724 | 1 | 3.42e6
PSMG1 | 1 | 3.61e6
Hs2st | 1 | 3.70e6
CG7236 | 1 | 3.50e6
SPoCk | 1 | 3.53e6
SPoCk | 2 | 3.33e6
SPoCk | 3 | 3.54e6
SPoCk | 4 | 3.48e6
dimm | 1 | 3.49e6
Cpr65Ax2 + Cpr65Ax1 | 1 | 3.67e6
Cpr65Ax2 + Cpr65Ax1 | 2 | 3.64e6
Or98a | 1 | 3.64e6
CG18368 | 1 | 3.72e6
CG43775 | 1 | 3.66e6
eIF2Bgamma | 1 | 3.42e6
CG9919 | 1 | 3.46e6
Liprin-gamma | 1 | 2.08e6

Quoted from the listing (9 entries):
Gene | dsRNA no. | mean viability with MMS
CG32651 | 1 | 3.51e6
lncRNA:noe | 1 | 3.47e6
TfIIFbeta | 1 | 3.67e6
TfIIFbeta | 2 | 2.69e6
CG9953 | 1 | 3.44e6
CG32533 | 1 | 3.61e6
CG32533 | 2 | 3.44e6
CG33339 | 1 | 3.60e6
pst | 1 | 3.59e6

Further reagents follow:
Gene | dsRNA no. | mean viability with MMS
CG34133 | 1 | 3.49e6
CG34133 | 2 | 3.49e6
nmo | 1 | 3.49e6
nmo | 2 | 3.47e6
ArgRS | 1 | 3.36e6
CG32588 | 1 | 3.54e6
CG4641 (retired record) | 1 | 3.53e6
Alp10 | 1 | 3.43e6
Alr | 1 | 3.46e6
Pfdn6 | 1 | 3.45e6
glo | 1 | 3.23e6
CG10801 | 1 | 3.44e6
Nadk1b | 1 | 3.60e6
Nadk1b | 2 | 3.79e6
Nadk1b | 3 | 3.47e6
Mys45A | 1 | 3.07e6
bbg | 1 | 3.57e6
bbg | 2 | 3.39e6
CG42694 | 1 | 3.49e6
CG6472 | 1 | 3.60e6
fh | 1 | 3.43e6
CG16717 | 1 | 3.70e6
CG31937 | 1 | 3.44e6
Rpn2 | 1 | 2.87e6
ND-B14 | 1 | 3.41e6
Atac1 | 1 | 3.79e6
CG8907 | 1 | 3.75e6
